Measurements: PubChem BioAssay AID1671190 (National Center for Advancing Translational Sciences (NCATS), 2021)
Values joined by “and” are separate entries in the source; they are usually repeats but may differ in a detail not shown here. Identical values can stand only once. The whole screen tested about 580,000 compounds, of which about 6,100 (1.1%) were called active. This list was built around the results that the source calls inconclusive (neither active nor inactive); the mix of calls is not that of the screen. Calls follow the shape of the dose curve; as a rule, active = well fitted inhibition curve with a large enough effect; inconclusive = small, poorly fitted or top-dose-only effect, or another doubt; inactive = no such curve, though single readings can be large or run the other way. Potencies beside an inconclusive call are fits to weak or partial responses and may not hold up.
% is scaled to controls: 0 for no effect and ±100 for the full control effect; potency is read from the fitted curve at half-maximal effect.

Amino acid sequences for entries named in this document (tags omitted). A change or cut given only in a name is not applied to a line headed by its entry.
UniProt P18054: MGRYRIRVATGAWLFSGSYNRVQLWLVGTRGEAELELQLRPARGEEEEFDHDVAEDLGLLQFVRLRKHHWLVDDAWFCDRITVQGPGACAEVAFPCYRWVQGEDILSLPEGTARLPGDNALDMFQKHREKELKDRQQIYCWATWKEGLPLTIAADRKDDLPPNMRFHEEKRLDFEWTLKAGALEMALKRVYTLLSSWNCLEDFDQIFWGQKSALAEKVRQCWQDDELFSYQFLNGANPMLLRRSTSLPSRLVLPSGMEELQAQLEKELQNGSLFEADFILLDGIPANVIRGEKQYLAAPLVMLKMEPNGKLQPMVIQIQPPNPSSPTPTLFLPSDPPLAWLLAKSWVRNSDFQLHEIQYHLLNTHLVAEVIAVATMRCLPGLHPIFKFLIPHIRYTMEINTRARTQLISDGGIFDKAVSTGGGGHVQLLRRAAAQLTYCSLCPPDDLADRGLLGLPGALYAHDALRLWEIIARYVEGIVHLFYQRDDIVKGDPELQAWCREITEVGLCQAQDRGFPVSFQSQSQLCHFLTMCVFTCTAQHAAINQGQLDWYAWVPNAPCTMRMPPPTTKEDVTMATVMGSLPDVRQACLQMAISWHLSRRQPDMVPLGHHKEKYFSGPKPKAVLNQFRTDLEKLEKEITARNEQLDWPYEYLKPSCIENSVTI

What follows are compounds tested against Polyunsaturated fatty acid lipoxygenase ALOX12 (Homo sapiens) (UniProt P18054) (assay: Primary qHTS assay for inhibitors of human arachidonate 12S-lipoxygenase (ALOX12): Round 2). Conditions: purified 12hLO, xylenol orange hydroperoxide absorbance; activity change, negative = inhibition: at 108 µM (top of the series) unless noted.
Outline: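 Purified human 12hLO (150 nM final) in 25 mM Hepes, 0.01% Triton X-100, pH 7.0 was preincubated 15 min at room temperature with compound. Then 40 uM arachidonic acid was added, 30 min. Hydroperoxide was read by Fe-XO absorbance ratio 573/405 nm.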
For CNC(=O)Nc1ccc(-c2nc(N3CC4CCC(C3)O4)c3cnn(C4CCC5(CC4)OCCO5)c3n2)cc1, the Potency was inconclusive: 19.3 µM [inhibitor, partial curve, poor fit].
In the case of Cn1c(=O)[nH]c(=O)c2c1nc(Br)n2CCCSc1nc2ccccc2o1, the Potency is reported as inconclusive: 56.2 µM [inhibitor, partial curve, poor fit].
CSc1ccc(S(=O)(=O)N2CCC(C(=O)NCCCn3ccnc3)CC2)cc1 was tested, and the Potency was “inactive”.
In the case of COc1ccc(C2CC(c3c(-c4ccccc4)c4cc(Cl)ccc4[nH]c3=O)=NN2C(=O)CCC(=O)O)cc1 (configuration not stated), the Potency is reported as inconclusive: 63.1 µM [inhibitor, partial curve, poor fit].
With O=C(Nc1ccc(S(=O)(=O)N2CCOCC2)cc1)c1ccc([N+](=O)[O-])s1 the Potency was inconclusive: 3.55 µM [inhibitor, full curve, poor fit].
C=C(c1ccccc1)c1ccc(N(C)C)cc1 was tested, and the Potency was inconclusive: 25.1 µM [inhibitor, single point].
With CCNc1nc(OC)nc(SCC(N)=O)n1 the Potency was inconclusive: 22.4 µM [inhibitor, partial curve, poor fit].
With Cc1cnc(C(=O)O)cn1 the Potency was inconclusive: 1 µM [inhibitor, full curve].
CCn1c2ccccc2c2cc(/C=N/NC(=O)c3ccccc3)ccc21 was tested, and the Potency was “inactive”.
CC(C)c1nc(NCCN2CCOCC2)c(C#N)c2c1COC(C)(C)C2 was tested, and the Potency was inconclusive: 100 µM [inhibitor, single point].
With CCCCNc1nc(-c2ccc(NS(C)(=O)=O)cc2)cs1 the Potency was inconclusive: 44.7 µM [inhibitor, partial curve, poor fit].
For O=C1NCCn2ccc(=O)cc21, the Potency was inconclusive: 126 µM [inhibitor, single point].
In the case of COC(=O)C1=C(NC(=O)COc2ccc3ccccc3c2)CCS1, the Potency is reported as inconclusive: 50.1 µM [inhibitor, partial curve, poor fit].
O=C1NC2(CCN(C(=O)OCc3ccccc3)C2)N=C1c1ccncc1 (configuration not stated) was tested, and the Potency was “inactive”.
With Cc1cccn2cc(CSc3nnc(-c4ccccc4)o3)nc12 the Potency was inconclusive: 56.2 µM [inhibitor, partial curve, poor fit].
For CCOc1ccc(C(C(=O)NC2CCCCC2)N(C(=O)c2cnccn2)c2cccs2)cc1 (configuration not stated), the Potency was “inactive”.
For CC1(C)COC(/C=C/c2cccc([N+](=O)[O-])c2)=N1, the Potency was inconclusive: 126 µM [inhibitor, single point].
In the case of COc1ccc(S(=O)(=O)N[C@@H](CSCc2ccccc2)C(=O)O)cc1, the Potency is reported as inconclusive: 28.2 µM [inhibitor, partial curve, poor fit].
For Cc1oc2ccc(O)c(CN3CCCCC3)c2c1C(=O)Nc1cccc(C(F)(F)F)c1, the activity change, negative = inhibition was inconclusive: -67.8% [inhibitor].
COc1cc(/C=C(\C#N)C(=O)N2CCCCC2)ccc1O was tested, and the Potency was “inactive”.
In the case of O=C1CCN(S(=O)(=O)c2ccc3c(c2)OCCO3)CCCCCCN1, the Potency is reported as “inactive”.
For COc1ccc(-c2cc(Nc3cccc(OC)c3)nc(C)n2)cc1, the Potency was inconclusive: 28.2 µM [inhibitor, partial curve].
For CC(C(=O)c1ccc(-c2ccccc2)cc1)[n+]1cccc(C(N)=O)c1 (configuration not stated), the Potency was inconclusive: 89.1 µM [inhibitor, single point].
CSCCC(NC(=O)[C@@H](NC(=O)c1ccc(Cl)cc1Cl)C(C)C)c1nnc2ccccn12 (some centres not stated) was tested, and the Potency was inconclusive: 100 µM [inhibitor, partial curve, poor fit].
In the case of CC(C)(c1ccccc1)c1ccc(OCC2CO2)cc1 (configuration not stated), the Potency is reported as “inactive”.
With Cc1ccc(NC(=O)CN2C(=O)N/C(=C/c3cccn3-c3ccc(C(=O)O)cc3)C2=O)cc1 the Potency was inconclusive: 50.1 µM [inhibitor, partial curve, poor fit].
For Cc1ccc2ccc(C)[n+](CCCS(=O)(=O)[O-])c2c1, the Potency was inconclusive: 44.7 µM [inhibitor, partial curve, poor fit].
In the case of CC1CCC(C(C)C)C(OC(=O)Cn2c(-c3ccc(Br)cc3)[n+](C)c3ccccc32)C1 (configuration not stated), the Potency is reported as inconclusive: 56.2 µM [inhibitor, partial curve, poor fit].
With Cc1oc(CC(C)C)cc1C(=O)Nc1cccc2ccccc12 the Potency was inconclusive: 14.1 µM [inhibitor, partial curve, poor fit].
For COc1cc(C(=O)O[C@@H]2CC(C)=CC[C@@]3(C)CC[C@](O)(C(C)C)[C@H]23)ccc1O, the Potency was inconclusive: 141 µM [inhibitor, single point].
In the case of CNC(=S)Nc1ccc(Nc2ccccc2)cc1, the Potency is reported as inconclusive: 22.4 µM [inhibitor, full curve, poor fit].
CCOC(=O)c1cc(NC(=O)OC)cc(C(=O)OCC)c1 was tested, and the Potency was inconclusive: 89.1 µM [inhibitor, single point].
With CCOc1cc(N2CCOCC2)c(OCC)cc1NC(=O)CN1CCC(Cc2ccccc2)CC1 the Potency was “inactive”.
With Cc1ccc2[nH]cc(CCNC(=O)/C=C/c3ccccc3)c2c1 the Potency was inconclusive: 89.1 µM [inhibitor, partial curve, poor fit].
In the case of C[C@H]1CN=C(N(C)C)N1CCC1CCCC1, the Potency is reported as “inactive”.
For Cc1nc(-c2ccc(S(=O)(=O)N3CCN(c4cccc(C)c4C)CC3)cc2)co1, the Potency was “inactive and inconclusive: 89.1 µM [inhibitor, partial curve, poor fit]”.
With O=C(c1ccc(S(=O)(=O)NCc2cccs2)cc1)N1CCCC1 the Potency was “inactive”.
With S=c1[nH]cc(-c2ccc(Cl)cc2)n1-c1ccccc1 the Potency was inconclusive: 2.51 µM [inhibitor, full curve, poor fit].
c1ccc(Nc2ncncc2-c2ccoc2)cc1 was tested, and the Potency was active: 17.8 µM.
In the case of COc1ccc(C(NC(=O)C2CCCC2)c2nccc3cc(OC)c(OC)cc23)cc1OC (configuration not stated), the Potency is reported as “inactive”.
With COc1ccc(C)cc1NC(=O)CSc1nnc(COc2ccccc2)n1Cc1ccco1 the Potency was inconclusive: 0.316 µM [inhibitor, full curve, poor fit].
With Cc1ccc(CNC(=O)CCS(=O)(=O)c2ccc(Br)s2)o1 the Potency was inconclusive: 50.1 µM [inhibitor, partial curve, poor fit].
